Data as given in the supplement of paper PMC3682954.
“And” between values parts separate entries of the source, which are not always exact repeats. Identical values can stand only once. Counter-ions that a name gives are not always drawn. ± gives the standard deviation of the averaged measurements. Some of the results follow. Repeats are few or missing, and single values can be far off.

Test system: RAW 264.7
Experiment: cell viability (MTT) relative to vehicle control; higher = more viable cells
Conditions: stimulus: HMGB1 5 ug/ml, 18 h
[1] = compound concentration: 1 ug/ml

Structure (SMILES) | cell viability (compound concentration: 3 uM) | cell viability [1] [%]
C[C@]12C=CC(=O)C=C1CC[C@@H]1[C@@H]2[C@@H](O)C[C@@]2(C)[C@H]1CC[C@]2(O)C(=O)CO [Prednisolone] | 115 ± 12% | 
C[C@]12C=CC(=O)C=C1CC[C@@H]1[C@@H]2[C@@H](O)C[C@@]2(C)[C@H]1CC[C@]2(O)C(=O)CO | 110% | 
O=c1[nH]cc(F)c(=O)[nH]1 [5-Fluorouracil] | 103 ± 3.7% | 
O=c1[nH]cc(F)c(=O)[nH]1 | 99.7 ± 3% | 
O=c1[nH]cc(F)c(=O)[nH]1 [5-fluorouracil] | 88.9% | 
CCCCCCCC/C=C\CCCCCCCC(=O)NCc1ccc(O)c(OC)c1 [Olvanil] | 92.6% | 
C[N+](C)(C)CCO.[Br-] [Choline bromide] | 103% | 
N=c1ccn2c(n1)O[C@H]1[C@H](O)[C@@H](CO)O[C@H]12 [Ancitabine hydrochloride] | 88.2% | 
N=c1ccn2c(n1)O[C@H]1[C@H](O)[C@@H](CO)O[C@H]12 [Cyclocytidine] | 100% | 
N=c1ccn2c(n1)O[C@H]1[C@H](O)[C@@H](CO)O[C@H]12 | 108 ± 3.1% | 
CC(=O)Oc1cc(C(F)(F)F)ccc1C(=O)O [Triflusal] | 80.2% | 
CN1CCN(CCCN2c3ccccc3Sc3ccc(S(=O)(=O)N(C)C)cc32)CC1 [Thioproperazine dimesylate] | 105% | 
C[C@@H](c1ncncc1F)[C@](O)(Cn1cncn1)c1ccc(F)cc1F | 93.7% | 
O=C(O)Cc1ccccc1Nc1c(Cl)cccc1Cl [Diclofenac sodium] | 98.4 ± 8.6% | 
O=C(O)Cc1ccccc1Nc1c(Cl)cccc1Cl | 97% and 98.6% | 
O=C(O)Cc1ccccc1Nc1c(Cl)cccc1Cl [Diclofenac] | 96.7% | 
COc1cc2c(cc1O)CC[C@@H]1[C@@H]2CC[C@]2(C)[C@@H](O)CC[C@@H]12 [2-methoxyestradiol] | 103% | 
CNC(=O)[C@H]1O[C@@H](n2cnc3c(NCc4ccc(N)cc4)ncnc32)[C@H](O)[C@@H]1O | 100% | 
COC(=O)C1=C(C)NC(C)=C(C(=O)OC)C1c1ccccc1[N+](=O)[O-] | 102 ± 6% | 
COC(=O)C1=C(C)NC(C)=C(C(=O)OC)C1c1ccccc1[N+](=O)[O-] [Nifedipine] | 109 ± 6.2% | 
Cc1cc2c(C(C)C)c(O)c(O)c(/C=N/NC(=O)c3ccoc3C)c2c(O)c1-c1c(C)cc2c(C(C)C)c(O)c(O)c(/C=N/NC(=O)c3ccoc3C)c2c1O |  | 109
CN(C)CCCN1c2ccccc2CCc2ccc(Cl)cc21 | 103% | 
CN(C)CCCN1c2ccccc2CCc2ccc(Cl)cc21 [Clomipramine hydrochloride] | 99.4 ± 8.4% | 
CO[C@@]1(NC(=O)C2SC(=C(C(N)=O)C(=O)O)S2)C(=O)N2C(C(=O)O)=C(CSc3nnnn3C)CS[C@@H]21 (some centres not stated) [Cefotetan] | 130% | 
Cc1cc(C)cc(OCC(=O)N/N=C/c2c(O)c(O)c(C(C)C)c3cc(C)c(-c4c(C)cc5c(C(C)C)c(O)c(O)c(/C=N/NC(=O)COc6cc(C)cc(C)c6)c5c4O)c(O)c23)c1 |  | 90.8
Cc1cc(NC(=O)C2=C(O)c3ccccc3S(=O)(=O)N2C)no1 | 112% | 

Structure (SMILES) | cell viability (compound concentration: 3 uM) | cell viability [1] [%]
Cc1cc(NC(=O)C2=C(O)c3ccccc3S(=O)(=O)N2C)no1 [Isoxicam] | 97.7% | 
O=C1NC(=O)/C(=C\c2ccc3nccnc3c2)S1 | 107% | 
Cc1cc(C(C)(C)CC(C)(C)C)ccc1OCCOCC[N+](C)(C)Cc1ccccc1 [Methyl benzethonium chloride] | 109% | 
Cc1cc(C(C)(C)CC(C)(C)C)ccc1OCCOCC[N+](C)(C)Cc1ccccc1 | 92.9% | 
Nc1ccc(O)c(C(=O)O)c1 [5-Amino-2-hydroxy-benzoic acid] | 97.9% | 
Nc1ccc(O)c(C(=O)O)c1 [5-Aminosalicylic acid] | 90.5% | 
Nc1ccc(O)c(C(=O)O)c1 [Mesalamine] | 86% | 
Nc1ccc(O)c(C(=O)O)c1 | 97.3% | 
CCN(CC)CCOC(=O)C1(c2ccc([N+](=O)[O-])cc2)CCCC1 [Nitrocaramiphen hydrochloride] | 69.6% | 
Clc1ccccc1CN1CCc2sccc2C1 | 96.5% and 107% | 
Clc1ccccc1CN1CCc2sccc2C1 [Ticlopidine hydrochloride] | 91.2% | 
Clc1ccccc1CN1CCc2sccc2C1 [Ticlopidine] | 106% | 
Nc1ccc(S(=O)(=O)Nc2ncccn2)cc1 [Sulfadiazine] | 97.3 ± 9.1% | 
Nc1ccc(S(=O)(=O)Nc2ncccn2)cc1 | 101% | 
O=C(O[C@H]1[C@H](Oc2ccccc2COC(=O)C2(O)C=CCCC2=O)O[C@H](CO)[C@@H](O)[C@@H]1O)c1ccccc1 (some centres not stated) | 96.8% | 
O=C(Nc1ccn([C@@H]2O[C@H](CO)[C@@H](O)[C@H]2O)c(=O)n1)c1ccccc1 [N4-Benzoylcytidine] |  | 97.3
C#C[C@]1(OC(C)=O)CC[C@H]2[C@@H]3CCC4=C[C@@H](OC(C)=O)CC[C@@H]4[C@H]3CC[C@@]21C | 98.2% | 
C#C[C@]1(OC(C)=O)CC[C@H]2[C@@H]3CCC4=C[C@@H](OC(C)=O)CC[C@@H]4[C@H]3CC[C@@]21C [Ethynodiol diacetate] | 97.5% | 
COc1cc2c(CCNC(C)=O)c[nH]c2cc1O [6-Hydroxymelatonin] | 108% | 
O=C(O)CNC(=O)c1ccccc1 [Hippuric acid] |  | 99.9
C#C[C@]1(O)CC[C@H]2[C@@H]3CCC4=CC(=O)CC[C@@H]4[C@H]3CC[C@@]21C | 105% | 
C#C[C@]1(O)CC[C@H]2[C@@H]3CCC4=CC(=O)CC[C@@H]4[C@H]3CC[C@@]21C [Norethindrone] | 95.6 ± 3.2% | 
CO[C@@]1(NC(=O)C(C(=O)O)c2ccc(O)cc2)C(=O)N2C(C(=O)O)=C(CSc3nnnn3C)CO[C@@H]21 (some centres not stated) [Moxalactam disodium salt] | 100% | 
CO[C@@]1(NC(=O)C(C(=O)O)c2ccc(O)cc2)C(=O)N2C(C(=O)O)=C(CSc3nnnn3C)CO[C@@H]21 (some centres not stated) | 109% | 
COc1ccc(-c2coc3ccc(OC4OC(COC(C)=O)C(OC(C)=O)C(OC(C)=O)C4OC(C)=O)cc3c2=O)cc1 (configuration not stated) |  | 95
CS(=O)(=O)c1ccc([C@H](O)[C@@H](COC(=O)CN)NC(=O)C(Cl)Cl)cc1 [Thiamphenicol glycinate] | 95.7% | 
